Test results published in paper PMC10290953, “A novel ELP1 mutation impairs the function of the Elongator complex and causes a severe neurodevelopmental phenotype” (Journal of Human Genetics, 2023).
Results are given in words; binding and its absence hold for the method and conditions named. Some entries that bind do so weakly or less than the wild type. Each block holds one molecule with its values, some of them ahead of it.

Protein sequences, listed by entry. Tags and fused reporters are not part of them. Lines headed by an entry give the natural chain unless they say otherwise; changes in a name come on top.
UniProt O95163: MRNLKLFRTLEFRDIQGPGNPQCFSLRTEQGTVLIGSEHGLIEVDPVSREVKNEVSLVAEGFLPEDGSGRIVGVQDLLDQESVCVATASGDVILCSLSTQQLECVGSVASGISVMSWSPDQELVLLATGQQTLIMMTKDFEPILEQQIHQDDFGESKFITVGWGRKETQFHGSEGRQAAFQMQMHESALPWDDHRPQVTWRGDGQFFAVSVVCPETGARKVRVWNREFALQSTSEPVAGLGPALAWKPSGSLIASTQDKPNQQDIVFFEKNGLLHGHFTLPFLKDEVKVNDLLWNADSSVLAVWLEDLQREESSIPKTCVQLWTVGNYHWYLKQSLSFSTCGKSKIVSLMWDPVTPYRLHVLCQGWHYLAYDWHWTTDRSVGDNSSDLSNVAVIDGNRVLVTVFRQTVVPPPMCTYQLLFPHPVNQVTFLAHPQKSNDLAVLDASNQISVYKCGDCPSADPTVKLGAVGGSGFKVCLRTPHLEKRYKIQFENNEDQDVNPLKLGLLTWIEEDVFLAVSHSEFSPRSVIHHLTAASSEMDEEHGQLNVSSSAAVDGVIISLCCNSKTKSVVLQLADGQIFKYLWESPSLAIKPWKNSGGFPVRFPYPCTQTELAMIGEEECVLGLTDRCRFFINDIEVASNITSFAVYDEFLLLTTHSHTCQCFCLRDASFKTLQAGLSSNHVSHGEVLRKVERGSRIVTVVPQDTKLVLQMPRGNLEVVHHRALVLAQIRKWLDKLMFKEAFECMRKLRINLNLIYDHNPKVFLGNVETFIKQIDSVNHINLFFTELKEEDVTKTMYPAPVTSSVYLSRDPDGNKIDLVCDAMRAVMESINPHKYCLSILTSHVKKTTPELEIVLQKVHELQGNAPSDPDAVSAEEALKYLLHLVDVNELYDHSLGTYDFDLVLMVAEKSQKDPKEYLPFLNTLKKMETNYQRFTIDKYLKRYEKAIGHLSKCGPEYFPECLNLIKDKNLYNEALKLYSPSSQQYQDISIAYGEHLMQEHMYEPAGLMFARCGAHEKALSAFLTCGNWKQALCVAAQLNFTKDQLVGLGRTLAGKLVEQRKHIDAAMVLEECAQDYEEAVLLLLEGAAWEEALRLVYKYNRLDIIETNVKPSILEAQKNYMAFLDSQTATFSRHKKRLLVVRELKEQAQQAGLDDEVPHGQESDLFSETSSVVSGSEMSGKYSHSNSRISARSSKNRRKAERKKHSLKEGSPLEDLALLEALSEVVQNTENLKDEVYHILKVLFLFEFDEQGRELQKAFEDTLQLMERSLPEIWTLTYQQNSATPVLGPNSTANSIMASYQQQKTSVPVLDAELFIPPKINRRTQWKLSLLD
UniProt Q6IA86: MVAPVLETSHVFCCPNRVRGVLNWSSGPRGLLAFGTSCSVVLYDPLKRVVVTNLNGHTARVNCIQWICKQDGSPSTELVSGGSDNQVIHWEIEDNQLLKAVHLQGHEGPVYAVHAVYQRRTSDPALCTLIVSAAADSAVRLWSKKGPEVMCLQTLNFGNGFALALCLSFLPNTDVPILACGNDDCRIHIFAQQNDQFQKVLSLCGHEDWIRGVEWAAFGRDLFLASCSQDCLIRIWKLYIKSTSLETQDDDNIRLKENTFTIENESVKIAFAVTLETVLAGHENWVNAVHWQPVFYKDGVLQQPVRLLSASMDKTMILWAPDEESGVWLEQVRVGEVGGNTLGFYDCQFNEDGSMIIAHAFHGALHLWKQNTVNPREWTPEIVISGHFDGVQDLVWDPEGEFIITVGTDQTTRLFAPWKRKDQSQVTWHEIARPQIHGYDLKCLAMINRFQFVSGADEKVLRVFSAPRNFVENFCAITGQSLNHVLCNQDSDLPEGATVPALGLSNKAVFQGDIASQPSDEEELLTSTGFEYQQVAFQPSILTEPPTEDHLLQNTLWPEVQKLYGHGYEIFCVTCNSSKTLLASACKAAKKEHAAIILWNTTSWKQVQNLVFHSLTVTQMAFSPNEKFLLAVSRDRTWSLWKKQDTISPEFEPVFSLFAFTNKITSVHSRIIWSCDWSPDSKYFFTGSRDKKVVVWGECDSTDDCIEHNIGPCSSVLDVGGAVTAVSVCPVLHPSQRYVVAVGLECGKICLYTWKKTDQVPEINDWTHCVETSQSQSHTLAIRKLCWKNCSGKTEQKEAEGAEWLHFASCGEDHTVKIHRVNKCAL
UniProt Q9H9T3: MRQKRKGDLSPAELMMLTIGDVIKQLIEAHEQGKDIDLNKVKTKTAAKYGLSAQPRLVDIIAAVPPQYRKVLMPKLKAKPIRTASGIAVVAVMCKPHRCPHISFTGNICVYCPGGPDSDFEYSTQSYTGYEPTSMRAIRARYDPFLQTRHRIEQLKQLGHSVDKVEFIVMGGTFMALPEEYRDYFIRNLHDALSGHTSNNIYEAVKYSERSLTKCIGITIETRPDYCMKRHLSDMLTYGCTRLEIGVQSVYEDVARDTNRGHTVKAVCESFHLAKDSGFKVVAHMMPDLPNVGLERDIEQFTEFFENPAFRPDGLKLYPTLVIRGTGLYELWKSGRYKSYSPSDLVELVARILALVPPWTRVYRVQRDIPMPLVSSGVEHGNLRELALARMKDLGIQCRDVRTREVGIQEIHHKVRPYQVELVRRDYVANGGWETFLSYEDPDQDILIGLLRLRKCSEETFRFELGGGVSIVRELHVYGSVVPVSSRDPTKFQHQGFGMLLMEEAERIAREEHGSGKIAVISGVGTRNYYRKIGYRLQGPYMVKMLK

Assays:
[1] = molecular target: T1, human ELP456 sub-complex (human) (UniProt Q96EB1+Q8TE02+Q0PNE2); assay: pull-down; ELP456 immobilised via tagged ELP6 (methods: Anti-DYKDDDDK resin, FLAG; legend: IgG beads, Prot A), incubated with ELP123 30 min at 4 °C, washed in 20 mM HEPES pH 7.5, 100 mM NaCl, 1 mM DTT, 0.05% Tween 20; SDS-PAGE, Coomassie; both purified
T1 sequence 1: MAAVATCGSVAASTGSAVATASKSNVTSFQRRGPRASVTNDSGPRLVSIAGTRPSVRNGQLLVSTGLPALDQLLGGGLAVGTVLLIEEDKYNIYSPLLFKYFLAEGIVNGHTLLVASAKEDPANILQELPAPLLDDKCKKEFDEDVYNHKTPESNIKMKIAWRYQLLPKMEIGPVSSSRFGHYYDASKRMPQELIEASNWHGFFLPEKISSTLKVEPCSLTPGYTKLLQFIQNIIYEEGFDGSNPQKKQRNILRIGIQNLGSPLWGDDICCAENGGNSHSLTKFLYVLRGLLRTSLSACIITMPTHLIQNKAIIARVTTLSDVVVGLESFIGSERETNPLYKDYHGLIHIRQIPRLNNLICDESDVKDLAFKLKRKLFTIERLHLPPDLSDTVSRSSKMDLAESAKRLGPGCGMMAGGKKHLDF
T1 sequence 2: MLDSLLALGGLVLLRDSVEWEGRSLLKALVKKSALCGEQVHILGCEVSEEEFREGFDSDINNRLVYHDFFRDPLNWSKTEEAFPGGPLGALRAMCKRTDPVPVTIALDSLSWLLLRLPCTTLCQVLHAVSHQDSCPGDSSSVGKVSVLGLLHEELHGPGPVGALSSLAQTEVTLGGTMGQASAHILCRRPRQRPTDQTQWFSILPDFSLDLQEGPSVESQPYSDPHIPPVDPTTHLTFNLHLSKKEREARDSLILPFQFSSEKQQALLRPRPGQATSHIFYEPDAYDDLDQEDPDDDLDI
T1 sequence 3: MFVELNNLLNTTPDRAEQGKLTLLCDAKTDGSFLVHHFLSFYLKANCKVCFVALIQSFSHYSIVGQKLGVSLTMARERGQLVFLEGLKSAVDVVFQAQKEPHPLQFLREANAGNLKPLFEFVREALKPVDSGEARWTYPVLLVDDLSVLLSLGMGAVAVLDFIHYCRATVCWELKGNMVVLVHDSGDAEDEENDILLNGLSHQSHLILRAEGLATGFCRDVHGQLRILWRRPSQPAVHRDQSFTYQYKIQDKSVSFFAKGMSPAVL

[2] = molecular target: human ELP123 sub-complex (wild type) (human) (UniProt O95163+Q6IA86+Q9H9T3); assay: pull-down; ELP123 immobilised on Dynabeads MyOne Streptavidin C1 via Twin-Strep-tagged ELP3, incubated with ELP456 30 min at 4 °C, washed in 20 mM HEPES pH 7.5, 100 mM NaCl, 1 mM DTT, 0.05% Tween 20; SDS-PAGE, Coomassie; both purified
[3] = molecular target: human ELP1_(K815T)23 sub-complex (human) (UniProt O95163+Q6IA86+Q9H9T3); assay: as above

binding [1]: binds
Molecule: human ELP1_(K815T)23 sub-complex (from UniProt O95163 1-1332; Q6IA86 1-826; Q9H9T3 1-547)

binding [1]: binds
Molecule: human ELP123 sub-complex (wild type) (from UniProt O95163 1-1332; Q6IA86 1-826; Q9H9T3 1-547)

binding [2]: binds
binding [3]: binds
B1: human ELP456 sub-complex (complex, UniProt Q96EB1 1-424; Q8TE02 1-300; Q0PNE2 1-266)
chain 1: T1 sequence 1
chain 2: T1 sequence 2
chain 3: T1 sequence 3
